Data taken from patent US6077872A (priority 1998, dated 2000).

Test system: rickets-mice
Assay: Preventing rickets in younger mice: body weight, dry weight, ash weight and total calcium content of femur
Type: in vivo, mice of Kunming species
Conditions: for body weight: model 37.2 ± 4.6
Description: The mice were bred for 60 days under conditions of avoiding light around-the-clock, at a temperature of 20-25° C. and a relative humility of 40-60% while the normal-control group mice were fed ordinary diet and water and were placed in non-dark room.
The low-calcium diet used in this test was the same as that in Test II but VD in the vitamin mixture was replaced by glucose.
Some weanling mice were placed in dark room and fed VD -deficient low-calcium diet and drunk de-ionized water for 60 days, thus a ricket model of baby mice was prepared. While other weanling mice were placed in non-dark room and fed ordinary diet and drunk tap water for 60 days, these mice were established as normal-control group.

Compound | body weight (200 mg calcium element) [g] | body weight (300 mg calcium element) [g] | body weight effect (in words) (mouse, in vivo)
O=C(O)[C@H](O)[C@@H](O)CO [calcium L-threonate] | 36.5 ± 4.7 | 37.3 ± 4.3 | not markedly affected
O=C(O)[C@H](O)[C@@H](O)[C@H](O)[C@H](O)CO [calcium gluconate, reference compound] | – | 36.1 ± 5.1 | –
